Results deposited as PubChem BioAssay AID1259405 (NCATS, 2018).
Aim: 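Knock-downs that lift recombinant protein yield in hamster ovary cells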 (primary screen). Cell system: Chinese hamster CHO-K1 ovary cells with stable secreted eGFP expression. Reagents: single siRNA against mouse genes, 0.8 pmol siRNA per well (2 µl of 400 nM stock). Time to read-out: 3 days. Measurement: 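Percent of the per-plate non-targeting control median for intracellular GFP per well by laser scanning cytometry and for cell viability by ATP luminescence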. Scale: GFP, % of control: higher = more GFP per well, higher productivity. Active means: 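Called active when intracellular GFP, relative to negative control, is at or above 120%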.
Here is one part, drawn at random, of about 50,000 deposited reagents. Of all reagents, about 4,000 (8%) are marked active. 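Mouse siRNA library applied to hamster cells; one well for each siRNA.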 The numbers tell different reagents against one gene apart. Further read-outs or replicates are left out here.

GFP, % of control, by gene knocked down and reagent
Dars2: #1 61.3 inactive; #2 93.4 inactive; #3 79.7 inactive
Atl1: #1 105 inactive; #2 72.5 inactive; #3 35.4 inactive
Polr2m: #1 71 inactive; #2 58.9 inactive; #3 45.1 inactive
AB124611: #1 95.2 inactive; #2 89.2 inactive; #3 72.8 inactive
Idi2: #1 28.9 inactive; #2 49 inactive; #3 59.7 inactive
Ticam2: #1 42 inactive; #2 77.8 inactive; #3 41.9 inactive
Cpsf2: #1 177 active; #2 178 active; #3 68.8 inactive; #4 82.4 inactive; #5 96.2 inactive; #6 86.9 inactive

4 entries from above, ordered by “GFP, % of control”, high to low:
gene knocked down	reagent	GFP, % of control	outcome
AB124611	1	95.2	inactive
AB124611	2	89.2	inactive
AB124611	3	72.8	inactive
Polr2m	3	45.1	inactive

Additional entries follow.
GFP, % of control, by gene knocked down and reagent
Alg8: #1 2.46 inactive; #2 68.2 inactive; #3 71.6 inactive
Tgfb2: #1 94.1 inactive; #2 50.8 inactive; #3 77.8 inactive
Prima1: #1 189 active; #2 29.2 inactive; #3 118 inactive; #4 57.4 inactive; #5 76 inactive; #6 110 inactive
